In the supplement of paper PMC7877785:
± gives the uncertainty stated by the source. The uncertainty is large for many entries.

Test: self-splicing fitness, log relative to wild type (ln ratio); higher = more splicing; Tetrahymena group I intron in knt gene, E. coli kanamycin selection, DiMSum; sequences stand for … in CUCUCU…GGAGGGAAAAGUUAUCAGGCAUGCACCUGGUAGCUAGUCUUUAAACCAAUAGAUUGCAUCGGUUUAAAAGGCAAGACCGUCAAAUUGCGGGAAAGGGGUCAACAGCCGUUCAGUACCAAGUCUCAGGGGAAACUUUGAGAUGGCCUUGCAAAGGGUAUGGUAAUAAGCUGACGGACAUGGUCCUAACCACGCAGCCAAGUCCUAAGUCAACAGAUCUUCUGUUGAUAUGGAUGCAGUUCACAGACUAAAUGUCGGUCGGGGAAGAUGUAUUCUUCUCAUAAGAUAUAGUCGGACCUCUCCUUAAUGGGAGCUAGCGGAUGAAGUGAUGCAACACUGGAGCCGCUGGGAACUAAUUUGUAUGCGAAAGUAUAUUGAUUAGUUUUGGAGUACUCGUGGUCG
Outline: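 Six replicate transformations of E. coli BL21(DE3) with a pET-22b(+) library were grown overnight at 37°C or 30°C. The library randomised all eight P1ex-region intron nucleotides, the intron lying in the knt kanamycin-resistance gene, and plates were LB agar with or without 25 μg/mL kanamycin plus 100 μg/mL carbenicillin, 50 μM IPTG and 0.2% rhamnose. Pooled colonies were amplicon-sequenced on an Illumina HiSeq 2500, and fitness is the DiMSum error-weighted combination of wild-type-normalised replicate fold changes, kanamycin versus none.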

Sequence | self-splicing fitness (ln) (30 °C) | self-splicing fitness (ln) (37 °C)
GGCGAGCAAUAUUACGAAUA | -1.96 ± 1.2 | -0.638 ± 0.87
GCUUAGCAAUAUUACGAAGU | -3.26 ± 0.21 | -2.27 ± 0.21
GAGUAGCAAUAUUACGAUCU | -1.59 ± 0.18 | -0.479 ± 0.16
CCCAAGCAAUAUUACGCGCC | -3.47 ± 1 | 
UACGAGCAAUAUUACGAAGC | -2.71 ± 0.35 | -0.927 ± 0.34
UUGUAGCAAUAUUACGUCGC |  | -2.49 ± 0.76
GACGAGCAAUAUUACGUCGC | -3.25 ± 0.47 | -0.634 ± 0.35
GGAAAGCAAUAUUACGACCC |  | -0.44 ± 1.4
GUUAAGCAAUAUUACGAUAG | -4.33 ± 0.72 | 
UUUAAGCAAUAUUACGAAAC | -3.68 ± 0.61 | 
GAAUAGCAAUAUUACGCAUG | -0.0618 ± 0.089 | -0.902 ± 0.091
UUGGAGCAAUAUUACGCAUU |  | -2.83 ± 0.61
UUUGAGCAAUAUUACGAUUC | -3.07 ± 1.1 | -2.04 ± 0.85
UAAGAGCAAUAUUACGCGGG | -3.49 ± 0.37 | -3.91 ± 0.36
GAUCAGCAAUAUUACGGUUC | -2.83 ± 0.23 | -0.31 ± 0.14
CCGUAGCAAUAUUACGGGCA | -3.76 ± 0.42 | -2.14 ± 0.23
CGAGAGCAAUAUUACGAGCC | -3.16 ± 0.74 | -2.05 ± 1.1
UUUGAGCAAUAUUACGAGAG |  | -2.18 ± 1.1
GGGGAGCAAUAUUACGCGGU |  | -1.92 ± 0.52
CUGUAGCAAUAUUACGGCAC | -1.7 ± 0.5 | -0.693 ± 0.58
UUUUAGCAAUAUUACGGUUC | -2.44 ± 1.1 | -2.17 ± 0.56
CCAGAGCAAUAUUACGAGAG | -2.95 ± 0.21 | -1.39 ± 0.23
GUCUAGCAAUAUUACGUCUA | -1.33 ± 0.23 | -1.22 ± 0.16
GCAGAGCAAUAUUACGGCAA | -3.59 ± 0.46 | -3.6 ± 0.42

Looked up above:
GGGGAGCAAUAUUACGCGGU – self-splicing fitness (ln) (37 °C): -1.92 ± 0.52
GAGUAGCAAUAUUACGAUCU – self-splicing fitness (ln) (37 °C): -0.479 ± 0.16

Following part:

Sequence | self-splicing fitness (ln) (30 °C) | self-splicing fitness (ln) (37 °C)
GGCUAGCAAUAUUACGCUCC |  | -1.75 ± 0.81
ACAGAGCAAUAUUACGAAAA | -2.27 ± 0.51 | 
UUGCAGCAAUAUUACGACCC | -1.91 ± 0.56 | 
UCGGAGCAAUAUUACGCAGA | -4.45 ± 0.59 | 
UGUCAGCAAUAUUACGAAAC | -3.79 ± 0.59 | 
CACUAGCAAUAUUACGGCAA | -4.1 ± 0.42 | -2.08 ± 0.18
CCACAGCAAUAUUACGACCC | -4.02 ± 0.39 | -2.75 ± 0.53
ACCGAGCAAUAUUACGAACC |  | -2.79 ± 1.1
UCUAAGCAAUAUUACGGCCC | -1.71 ± 0.69 | -0.595 ± 0.71
UAGGAGCAAUAUUACGCUGU | -3.77 ± 0.73 | -2.19 ± 0.79
CGAGAGCAAUAUUACGACUU | -3.75 ± 0.6 | -2.22 ± 0.51
CUAGAGCAAUAUUACGCUUU | -4.8 ± 1 | -3.31 ± 0.6
UUUGAGCAAUAUUACGCGUA | -2.14 ± 0.57 | 
CGCGAGCAAUAUUACGCACC | -2.98 ± 0.54 | -1 ± 0.92
CUCGAGCAAUAUUACGACCG | -2.29 ± 0.57 | 0.0117 ± 1.2
GUAGAGCAAUAUUACGACCA |  | -0.76 ± 0.55
GUUUAGCAAUAUUACGGGAC | -2.8 ± 0.61 | 
AAUCAGCAAUAUUACGCAAC | -1.32 ± 0.11 | -0.666 ± 0.13
CUUAAGCAAUAUUACGCGAC | -1.83 ± 0.16 | -0.508 ± 0.23
CUCUAGCAAUAUUACGUGCA |  | -3.44 ± 0.52
UGCGAGCAAUAUUACGCUAG |  | -2.08 ± 1.1
GGGAAGCAAUAUUACGCAGC | -1.29 ± 0.14 | -1.12 ± 0.19
UCCUAGCAAUAUUACGACGC | -2.35 ± 0.17 | -2.02 ± 0.2
CCCGAGCAAUAUUACGCCCG | -3.18 ± 0.65 | -1.41 ± 0.65

Sequence | self-splicing fitness (ln) (30 °C) | self-splicing fitness (ln) (37 °C)
ACUAAGCAAUAUUACGCCCA | -0.779 ± 0.11 | -0.482 ± 0.13
UCGAAGCAAUAUUACGCUAG | -2.16 ± 0.14 | -0.234 ± 0.14
UCCUAGCAAUAUUACGGCAC | -4.97 ± 0.72 | 
GUCAAGCAAUAUUACGGAGC |  | -0.707 ± 0.78
UAUAAGCAAUAUUACGAAUC | -4.4 ± 1 | 
AAGGAGCAAUAUUACGCUCC | -1.32 ± 0.58 | 
CGGUAGCAAUAUUACGCUCC |  | -2.33 ± 0.55
UCAUAGCAAUAUUACGCCCU |  | -1.83 ± 0.58
GGGAAGCAAUAUUACGGGUG | -2.68 ± 0.13 | -2.12 ± 0.18
UGCGAGCAAUAUUACGUAGU | -5.47 ± 0.71 | 
UGGGAGCAAUAUUACGUAGA |  | -2.31 ± 1.1
AGUUAGCAAUAUUACGCGGC | -2.64 ± 0.64 | -2.72 ± 1.1
UCUUAGCAAUAUUACGCUAC |  | -2.72 ± 1.1
CUCUAGCAAUAUUACGACAC | -3.7 ± 1.1 | 
UUUGAGCAAUAUUACGCUCU | -1.78 ± 0.84 | -1.15 ± 0.63
CAUGAGCAAUAUUACGAACA | -3.38 ± 0.54 | 
CAGAAGCAAUAUUACGAUAC | -4.19 ± 0.51 | 
UUCCAGCAAUAUUACGCCAC | -3.73 ± 0.61 | 
UCGGAGCAAUAUUACGAGGU | -3.66 ± 1 | -1.6 ± 0.84
UCUAAGCAAUAUUACGAAUC | -4.12 ± 1 | 
GGAUAGCAAUAUUACGUGGC |  | -2.32 ± 0.54
GACAAGCAAUAUUACGCCAG |  | -2.87 ± 0.53
GCGGAGCAAUAUUACGCCGU |  | -2.7 ± 0.77
UCUGAGCAAUAUUACGCCUA | -3.15 ± 0.63 | 

Sequence | self-splicing fitness (ln) (30 °C) | self-splicing fitness (ln) (37 °C)
ACCGAGCAAUAUUACGCGAC | -3.52 ± 0.6 | 
GCGGAGCAAUAUUACGGCAC | -1.69 ± 0.56 | 2.18 ± 0.73
AUGGAGCAAUAUUACGCAAC | -3.65 ± 0.73 | -2.11 ± 0.57
UGGUAGCAAUAUUACGCGGC | -0.135 ± 0.87 | -1.65 ± 0.8
GGCGAGCAAUAUUACGAGAA | -4.04 ± 1.1 | 
GUGAAGCAAUAUUACGUACC |  | 0.326 ± 0.69
UCGCAGCAAUAUUACGCUAC |  | -2.74 ± 0.54
UAGUAGCAAUAUUACGAAGG | -0.962 ± 0.83 | 
CUGAAGCAAUAUUACGCCAC |  | -2.17 ± 0.55
GUCGAGCAAUAUUACGCUAC | -3.26 ± 0.53 | -1.12 ± 0.64
UCUCAGCAAUAUUACGGAAC |  | -1 ± 0.92
UUCCAGCAAUAUUACGCCCU | -2.12 ± 0.68 | 
UUUGAGCAAUAUUACGAGAA | -2.57 ± 0.78 | 
UCCUAGCAAUAUUACGGGUA | -0.468 ± 0.088 | -0.134 ± 0.12
CGGCAGCAAUAUUACGAUCG | -2.76 ± 0.18 | -1.97 ± 0.19
GCGAAGCAAUAUUACGACCC |  | 0.823 ± 0.79
UAGAAGCAAUAUUACGCCCA | -0.128 ± 0.15 | 0.21 ± 0.25
UCGUAGCAAUAUUACGUGUU | -3.06 ± 0.21 | -2.46 ± 0.19
CUGUAGCAAUAUUACGGCGA | -3.7 ± 1 | -3.91 ± 0.59
GCUAAGCAAUAUUACGCAAG | -3.64 ± 0.74 | 
GAGCAGCAAUAUUACGCUAC | -3.69 ± 0.6 | 

Some of the entries so far, comma-delimited.
Sequence,self-splicing fitness (ln) (30 °C),self-splicing fitness (ln) (37 °C)
CAGAAGCAAUAUUACGAUAC,-4.19 ± 0.51,
UUCCAGCAAUAUUACGCCAC,-3.73 ± 0.61,
UCGGAGCAAUAUUACGAGGU,-3.66 ± 1,-1.6 ± 0.84
UCUAAGCAAUAUUACGAAUC,-4.12 ± 1,
GGAUAGCAAUAUUACGUGGC,,-2.32 ± 0.54
GACAAGCAAUAUUACGCCAG,,-2.87 ± 0.53
GCGGAGCAAUAUUACGCCGU,,-2.7 ± 0.77
UCUGAGCAAUAUUACGCCUA,-3.15 ± 0.63,
ACCGAGCAAUAUUACGCGAC,-3.52 ± 0.6,
GCGGAGCAAUAUUACGGCAC,-1.69 ± 0.56,2.18 ± 0.73
AUGGAGCAAUAUUACGCAAC,-3.65 ± 0.73,-2.11 ± 0.57
UGGUAGCAAUAUUACGCGGC,-0.135 ± 0.87,-1.65 ± 0.8
GGCGAGCAAUAUUACGAGAA,-4.04 ± 1.1,
GUGAAGCAAUAUUACGUACC,,0.326 ± 0.69
UCGCAGCAAUAUUACGCUAC,,-2.74 ± 0.54
UAGUAGCAAUAUUACGAAGG,-0.962 ± 0.83,
CUGAAGCAAUAUUACGCCAC,,-2.17 ± 0.55
GUCGAGCAAUAUUACGCUAC,-3.26 ± 0.53,-1.12 ± 0.64
UCUCAGCAAUAUUACGGAAC,,-1 ± 0.92
UUCCAGCAAUAUUACGCCCU,-2.12 ± 0.68,
UUUGAGCAAUAUUACGAGAA,-2.57 ± 0.78,
UCCUAGCAAUAUUACGGGUA,-0.468 ± 0.088,-0.134 ± 0.12
CGGCAGCAAUAUUACGAUCG,-2.76 ± 0.18,-1.97 ± 0.19
GCGAAGCAAUAUUACGACCC,,0.823 ± 0.79
UAGAAGCAAUAUUACGCCCA,-0.128 ± 0.15,0.21 ± 0.25
UCGUAGCAAUAUUACGUGUU,-3.06 ± 0.21,-2.46 ± 0.19
CUGUAGCAAUAUUACGGCGA,-3.7 ± 1,-3.91 ± 0.59
GCUAAGCAAUAUUACGCAAG,-3.64 ± 0.74,
GAGCAGCAAUAUUACGCUAC,-3.69 ± 0.6,
